The list is a part of this screen's results and no random one: it covers a few groups of compounds. Other doses and runs of a compound may be missing. T/C is the treated group as % of the vehicle group. Some doses have a count of surviving animals in place of a T/C: the source files T/C as zero there, which appears to mark a toxic dose or a test without result, not a measured value. Some doses without a T/C left all or most animals alive at the check, yet need not have been tolerated: the source hardly ever lists a survival T/C far under the control, and the zero likely stands for such cases as well. Counts of survivors are from the toxicity check (mostly the fifth day) where no day follows; animals may have died later. Schedule codes are those of the source, taken here to give the interval after Q, in days (D) or hours (H), and the number of doses after X. Some entries were tested several times; their values stand side by side, smallest first. Where survival is the endpoint, this PubChem deposit counts one and a half times the control or more as active, and values a quarter to a half above the control carry no call in these data; other NCI protocols may use other cut-offs. Some entries show no survivor count and are marked so; the dose need not have been tolerated. Some T/C values are followed by the survivors on the day toxicity was checked, most often the fifth; without a count or a note in brackets, all were alive then.
Tested on: CD2F1 mice, L1210 leukemia ip, survival T/C
Assay: NCI In Vivo Anticancer Drug Screen. Data for tumor model L1210 Leukemia (intraperitoneal) in CD2F1 (CDF1) mice
Settings: higher T/C = longer survival
Description: The antitumor activity of compounds was measured in mice bearing transplantable tumors. Survival or tumor size were measured and the results are expressed as the measurement made in the treated group (T) divided by the measurement made in the vehicle treated control group (C). The tumor model used in this assay is L1210 Leukemia (intraperitoneal) in CD2F1 (CDF1) mice

[1] = T/C endpoint: mean survival time, dose: 50.0 mg/kg/injection, schedule: Q01DX001 (ip), vehicle: DMSO, evaluated on day 60
[2] = T/C endpoint: mean survival time, dose: 250.0 mg/kg/injection, schedule: Q01DX001 (ip), vehicle: DMSO
[3] = T/C endpoint: mean survival time, dose: 266.0 mg/kg/injection, schedule: Q01DX001 (ip), vehicle: DMSO
[4] = T/C endpoint: mean survival time, dose: 500.0 mg/kg/injection, schedule: Q01DX001 (ip), vehicle: DMSO
[5] = T/C endpoint: mean survival time, dose: 600.0 mg/kg/injection, schedule: Q01DX001 (ip), vehicle: DMSO
[6] = T/C endpoint: mean survival time, dose: 900.0 mg/kg/injection, schedule: Q01DX001 (ip), vehicle: DMSO
[7] = T/C endpoint: mean survival time, dose: 100.0 mg/kg/injection, schedule: Q01DX001 (ip), vehicle: DMSO
[8] = T/C endpoint: mean survival time, dose: 200.0 mg/kg/injection, schedule: Q01DX001 (ip), vehicle: DMSO
[9] = T/C endpoint: mean survival time, dose: 400.0 mg/kg/injection, schedule: Q01DX001 (ip), vehicle: DMSO
[10] = T/C endpoint: mean survival time, dose: 100.0 mg/kg/injection, schedule: Q04DX003 (ip), vehicle: saline with Tween-80
[11] = T/C endpoint: mean survival time, dose: 200.0 mg/kg/injection, schedule: Q04DX003 (ip), vehicle: saline with Tween-80
[12] = T/C endpoint: mean survival time, dose: 400.0 mg/kg/injection, schedule: Q04DX003 (ip), vehicle: saline with Tween-80

NC1CCCCC1.O=P(O)(N(CCCl)CCCl)N1CC1
T/C (T/C endpoint: mean survival time, dose: 25.0 mg/kg/injection, schedule: Q01DX001 (ip), vehicle: DMSO, evaluated on day 45): 101 % of control
T/C (T/C endpoint: mean survival time, dose: 25.0 mg/kg/injection, schedule: Q01DX001 (ip), vehicle: DMSO, evaluated on day 60): 116 % of control
T/C (T/C endpoint: mean survival time, dose: 25.0 mg/kg/injection, schedule: Q01DX001 (ip), vehicle: other): 113 % of control
T/C (T/C endpoint: mean survival time, dose: 25.0 mg/kg/injection, schedule: Q01DX001 (ip), vehicle: water): 126 % of control
T/C (T/C endpoint: mean survival time, dose: 31.25 mg/kg/injection, schedule: Q01DX001 (ip), vehicle: DMSO): 146 % of control
T/C (T/C endpoint: mean survival time, dose: 50.0 mg/kg/injection, schedule: Q01DX001 (ip), vehicle: DMSO, evaluated on day 45): 158 % of control
T/C [1]: 116 % of control
T/C (T/C endpoint: mean survival time, dose: 50.0 mg/kg/injection, schedule: Q01DX001 (ip), vehicle: other): 129 % of control
T/C (T/C endpoint: mean survival time, dose: 50.0 mg/kg/injection, schedule: Q01DX001 (ip), vehicle: water): 151 % of control
T/C (T/C endpoint: mean survival time, dose: 62.5 mg/kg/injection, schedule: Q01DX001 (ip), vehicle: DMSO): 173 % of control
T/C (T/C endpoint: mean survival time, dose: 100.0 mg/kg/injection, schedule: Q01DX001 (ip), vehicle: DMSO, evaluated on day 45): 121 % of control
T/C (T/C endpoint: mean survival time, dose: 100.0 mg/kg/injection, schedule: Q01DX001 (ip), vehicle: DMSO, evaluated on day 60): 140 % of control
T/C (T/C endpoint: mean survival time, dose: 100.0 mg/kg/injection, schedule: Q01DX001 (ip), vehicle: other): 148 % of control
T/C (T/C endpoint: mean survival time, dose: 100.0 mg/kg/injection, schedule: Q01DX001 (ip), vehicle: water): 177 % of control
T/C (T/C endpoint: mean survival time, dose: 125.0 mg/kg/injection, schedule: Q01DX001 (ip), vehicle: DMSO, evaluated on day 30): 144 % of control [5 of 6 alive]
T/C (T/C endpoint: mean survival time, dose: 125.0 mg/kg/injection, schedule: Q01DX001 (ip), vehicle: DMSO, evaluated on day 60): 135 % of control
T/C (T/C endpoint: mean survival time, dose: 200.0 mg/kg/injection, schedule: Q01DX001 (ip), vehicle: DMSO, evaluated on day 45): 147 % of control
T/C (T/C endpoint: mean survival time, dose: 200.0 mg/kg/injection, schedule: Q01DX001 (ip), vehicle: DMSO, evaluated on day 60): 379 % of control
T/C (T/C endpoint: mean survival time, dose: 200.0 mg/kg/injection, schedule: Q01DX001 (ip), vehicle: other): 175 % of control [5 of 6 alive]
survivor count (T/C endpoint: mean survival time, dose: 200.0 mg/kg/injection, schedule: Q01DX001 (ip), vehicle: water): 2 of 6
T/C [2]: 142 % of control
survivor count [2]: 2 of 6
T/C [3]: 101 % of control
T/C (T/C endpoint: mean survival time, dose: 400.0 mg/kg/injection, schedule: Q01DX001 (ip), vehicle: DMSO, evaluated on day 25): 106 % of control
T/C (T/C endpoint: mean survival time, dose: 400.0 mg/kg/injection, schedule: Q01DX001 (ip), vehicle: DMSO, evaluated on day 45): 210 % of control
T/C (T/C endpoint: mean survival time, dose: 400.0 mg/kg/injection, schedule: Q01DX001 (ip), vehicle: DMSO, evaluated on day 60): 490 % of control
T/C (T/C endpoint: mean survival time, dose: 400.0 mg/kg/injection, schedule: Q01DX001 (ip), vehicle: other): 302 % of control
survivor count (T/C endpoint: mean survival time, dose: 400.0 mg/kg/injection, schedule: Q01DX001 (ip), vehicle: water): 0 of 6
T/C [4]: 456 % of control
survivor count [4]: 0 of 6
T/C [5]: 103 % of control
survivor count [6]: 1 of 6

CC(=O)CCOP(=O)(N(C)C)N(CCCl)CCCl (centres undefined)
T/C (T/C endpoint: mean survival time, dose: 25.0 mg/kg/injection, schedule: Q01DX001 (ip), vehicle: DMSO): 103 % of control
T/C (T/C endpoint: mean survival time, dose: 50.0 mg/kg/injection, schedule: Q01DX001 (ip), vehicle: DMSO, evaluated on day 20): 132 % of control
T/C [1]: 108 % of control
T/C [7]: 102 % of control
survivor count [7]: 4 of 6
T/C [8]: 115 % of control
survivor count [8]: 3 of 6
T/C [3]: 125 % of control
T/C [9]: 137 % of control [5 of 6 alive]
survivor count [9]: 0 of 6 and 6 of 6
survivor count [5]: 3 of 6
survivor count [6]: 0 of 6

CC1=NP(=O)(N(CCCl)CCCl)N=C(C)N1
T/C (T/C endpoint: mean survival time, dose: 31.25 mg/kg/injection, schedule: Q01DX001 (ip), vehicle: water): 104 % of control
T/C (T/C endpoint: mean survival time, dose: 62.5 mg/kg/injection, schedule: Q01DX001 (ip), vehicle: water): 100 % of control
T/C (T/C endpoint: mean survival time, dose: 125.0 mg/kg/injection, schedule: Q01DX001 (ip), vehicle: water): 98 % of control
T/C (T/C endpoint: mean survival time, dose: 250.0 mg/kg/injection, schedule: Q01DX001 (ip), vehicle: water): 98 % of control
T/C (T/C endpoint: mean survival time, dose: 500.0 mg/kg/injection, schedule: Q01DX001 (ip), vehicle: water): 104 % of control

CN(C)CCOC(=O)C(O)(c1ccccc1)C1CCCCC1 (centres undefined)
T/C (T/C endpoint: mean survival time, dose: 75.0 mg/kg/injection, schedule: Q01DX001 (ip), vehicle: other): 91 % of control
T/C (T/C endpoint: mean survival time, dose: 150.0 mg/kg/injection, schedule: Q01DX001 (ip), vehicle: other): 100 % of control

Cc1c([N+](=O)[O-])c(C)c([N+](=O)[O-])c(C2CCCCC2)c1[N+](=O)[O-]
T/C [10]: 98 % of control
T/C [11]: 102 % of control
T/C [12]: 95 % of control

ClP1(Cl)=NP(Cl)(Cl)=NP(Cl)(Oc2ccccc2)=N1 (centres undefined)
T/C (T/C endpoint: mean survival time, dose: 6.25 mg/kg/injection, schedule: Q01DX009 (ip), vehicle: saline with Tween-80): 102 % of control
T/C (T/C endpoint: mean survival time, dose: 12.5 mg/kg/injection, schedule: Q01DX009 (ip), vehicle: saline with Tween-80): 100 % of control
T/C (T/C endpoint: mean survival time, dose: 25.0 mg/kg/injection, schedule: Q01DX009 (ip), vehicle: saline with Tween-80): 108 % of control [5 of 6 alive]
survivor count [10]: 3 of 6
survivor count [11]: 0 of 6
survivor count [12]: 0 of 6

S=P(Cl)(Cl)c1ccc(Cl)cc1
T/C (T/C endpoint: mean survival time, dose: 25.0 mg/kg/injection, schedule: Q04DX003 (ip), vehicle: saline with Tween-80): 100 % of control
T/C (T/C endpoint: mean survival time, dose: 50.0 mg/kg/injection, schedule: Q04DX003 (ip), vehicle: saline with Tween-80): 98 % of control
survivor count [10]: 1 of 6

C1CN1.[Cl][Pt][Cl]
T/C (T/C endpoint: median survival time, dose: 3.12 mg/kg/injection, schedule: Q04DX003 (ip), vehicle: distilled water + Tween-80): 115 % of control
T/C (T/C endpoint: median survival time, dose: 6.25 mg/kg/injection, schedule: Q04DX003 (ip), vehicle: distilled water + Tween-80): 112 % of control
T/C (T/C endpoint: median survival time, dose: 12.5 mg/kg/injection, schedule: Q04DX003 (ip), vehicle: distilled water + Tween-80): 97 % of control
T/C (T/C endpoint: median survival time, dose: 25.0 mg/kg/injection, schedule: Q04DX003 (ip), vehicle: distilled water + Tween-80): 105 % of control
T/C (T/C endpoint: median survival time, dose: 50.0 mg/kg/injection, schedule: Q04DX003 (ip), vehicle: distilled water + Tween-80): 112 % of control
T/C (T/C endpoint: median survival time, dose: 100.0 mg/kg/injection, schedule: Q04DX003 (ip), vehicle: distilled water + Tween-80): 112 % of control
T/C (T/C endpoint: median survival time, dose: 200.0 mg/kg/injection, schedule: Q04DX003 (ip), vehicle: distilled water + Tween-80): 116 % of control

O=[N+]([O-])c1cc([N+](=O)[O-])c(O)c([N+](=O)[O-])c1.OCCCN=C1CCCCC1
T/C (T/C endpoint: mean survival time, dose: 75.0 mg/kg/injection, schedule: Q01DX001 (ip), vehicle: saline): 98 % of control [survivor count not shown]
T/C (T/C endpoint: mean survival time, dose: 150.0 mg/kg/injection, schedule: Q01DX001 (ip), vehicle: saline): 97 % of control [survivor count not shown]

O=P1(N(CCCl)CCCl)OCC(CCl)O1 (centres undefined)
T/C (T/C endpoint: mean survival time, dose: 62.5 mg/kg/injection, schedule: Q01DX001 (ip), vehicle: other): 101 % of control
T/C (T/C endpoint: mean survival time, dose: 125.0 mg/kg/injection, schedule: Q01DX001 (ip), vehicle: other): 107 % of control
T/C (T/C endpoint: mean survival time, dose: 250.0 mg/kg/injection, schedule: Q01DX001 (ip), vehicle: other): 122 % of control
survivor count (T/C endpoint: mean survival time, dose: 500.0 mg/kg/injection, schedule: Q01DX001 (ip), vehicle: other): 3 of 6

Cc1ccc2c(c1)C[P+](c1ccccc1)(c1ccccc1)CC2C.F[P-](F)(F)(F)(F)F (centres undefined)
T/C [10]: 95 % of control [2 of 3 alive]
survivor count [11]: 2 of 3
survivor count [12]: 0 of 3
